Test results: article PMC4813127
Weaker means in comparison with the reference protein, sequence or condition of that experiment. Where a protein sequence is shown, tags need not be part of it.

Target: T1, ROC1 (regulator of CBF1 + IDD protein) (UniProt B7ERE7)
T1 sequence (looked up, limits assumed): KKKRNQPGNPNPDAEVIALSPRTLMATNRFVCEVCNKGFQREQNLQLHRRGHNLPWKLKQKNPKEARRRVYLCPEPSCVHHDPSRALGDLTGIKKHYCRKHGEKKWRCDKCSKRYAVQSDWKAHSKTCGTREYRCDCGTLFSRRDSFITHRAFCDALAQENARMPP
Assay: competition with a labelled probe
Settings: unlabeled mP1 against labeled P1, only slightly interfered; 25 mM HEPES-KOH pH 7.5, 100 mM KCl, 0.1 mM EDTA, 10% glycerol, 1 mM DTT, 1 ug poly(dI-dC), 1 ug GST-ROC1, 20 uL, room temperature 30 min; 8% PAGE in 0.5X TBE; recombinant protein; protein details: N-terminal GST (pGEX5x-1); label: unlabeled competitor

“GGATCCGTCTTTTTTTGATAGCTTG (double strand) [mP1 (CCTGTTT to TTTTTTT)]”: binds more weakly.
